Source: PMC12520364
These are yes or no findings as the source states them, for the method shown. In cells and extracts the contact can be indirect. Sequences can lack the tags named with a protein.

Target: HA-tagged SARS-CoV-2 M protein (SARS-CoV-2) (UniProt P0DTC5)
Test: pull-down; only the binder purified

B1: Purified recombinant UBXN7-his protein (protein, UniProt O94888 1-489)
chain: MAAHGGSAASSALKGLIQQFTTITGASESVGKHMLEACNNNLEMAVTMFLDGGGIAEEPSTSSASVSTVRPHTEEEVRAPIPQKQEILVEPEPLFGAPKRRRPARSIFDGFRDFQTETIRQEQELRNGGAIDKKLTTLADLFRPPIDLMHKGSFETAKECGQMQNKWLMINIQNVQDFACQCLNRDVWSNEAVKNIIREHFIFWQVYHDSEEGQRYIQFYKLGDFPYVSILDPRTGQKLVEWHQLDVSSFLDQVTGFLGEHGQLDGLSSSPPKKCARSESLIDASEDSQLEAAIRASLQETHFDSTQTKQDSRSDEESESELFSGSEEFISVCGSDEEEEVENLAKSRKSPHKDLGHRKEENRRPLTEPPVRTDPGTATNHQGLPAVDSEILEMPPEKADGVVEGIDVNGPKAQLMLRYPDGKREQITLPEQAKLLALVKHVQSKGYPNERFELLTNFPRRKLSHLDYDITLQEAGLCPQETVFVQERN
binding: no binding
